The target in assay [1] is T1, endogenous SNPH (mouse brain) (mouse (endogenous in mouse brain)) (UniProt Q80U23).
T1 sequence: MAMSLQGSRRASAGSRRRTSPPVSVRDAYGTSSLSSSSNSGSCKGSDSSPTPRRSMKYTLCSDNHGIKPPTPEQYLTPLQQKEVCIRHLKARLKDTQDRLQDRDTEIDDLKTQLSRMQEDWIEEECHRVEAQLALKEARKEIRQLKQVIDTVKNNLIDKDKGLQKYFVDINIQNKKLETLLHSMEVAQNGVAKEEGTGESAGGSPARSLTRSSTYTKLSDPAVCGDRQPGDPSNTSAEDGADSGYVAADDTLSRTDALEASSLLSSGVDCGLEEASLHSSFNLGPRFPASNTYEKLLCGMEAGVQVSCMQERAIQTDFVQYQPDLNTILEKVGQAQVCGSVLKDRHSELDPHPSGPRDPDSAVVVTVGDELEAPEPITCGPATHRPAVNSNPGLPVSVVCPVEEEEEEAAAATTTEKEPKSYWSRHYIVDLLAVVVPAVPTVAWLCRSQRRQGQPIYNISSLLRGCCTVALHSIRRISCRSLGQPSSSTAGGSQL
Nature of the assay: co-IP; endogenous proteins, whole lysates of mouse brain tissue; anti-SNPH immunoprecipitates blotted with anti-SNPH and anti-DISC1.

The target in assay [2] is T1, endogenous SNPH (mouse brain) (mouse (endogenous in mouse brain)). The assay can be described thus: co-IP; endogenous proteins, mitochondrial fraction of mouse brain tissue; anti-SNPH immunoprecipitates blotted with anti-SNPH and anti-DISC1; rabbit IgG as negative control.

Results are given in words; binding and its absence hold for the method and conditions named. Binding seen in cells or lysates may run through a third protein. Some results given as binding are weak or reduced against the parent protein; the word gives no strength.

B1: endogenous DISC1 (mouse brain) (protein, UniProt Q811T9 1-852)
chain: MQGGGPRGAPIHSPSHGADSGHGLPPAVAPQRRRLTRRPGYMRSTAGSGIGFLSPAVGMPHPSSAGLTGQQSQHSQSKAGQCGLDPGSHCQASLVGKPFLKSSLVPAVASEGHLHPAQRSMRKRPVHFAVHSKNDSRQSERLTGSFKPGDSGFWQELLSSDSFKSLAPSLDAPWNKGSRGLKTVKPLASPALNGPADIASLPGFQDTFTSSFSFIQLSLGAAGERGEAEGCLPSREAEPLHQRPQEMAAEASSSDRPHGDPRHLWTFSLHAAPGLADLAQVTRSSSRQSECGTVSSSSSDTGFSSQDASSAGGRGDQGGGWADAHGWHTLLREWEPMLQDYLLSNRRQLEVTSLILKLQKCQEKVVEDGDYDTAETLRQRLEELEQEKGRLSWALPSQQPALRSFLGYLAAQIQVALHGATQRAGSDDPEAPLEGQLRTTAQDSLPASITRRDWLIREKQRLQKEIEALQARMSALEAKEKRLSQELEEQEVLLRWPGCDLMALVAQMSPGQLQEVSKALGETLTSANQAPFQVEPPETLRSLRERTKSLNLAVRELTAQVCSGEKLCSSLRRRLSDLDTRLPALLEAKMLALSGSCFSTAKELTEEIWALSSEREGLEMFLGRLLALSSRNSRRLGIVKEDHLRCRQDLALQDAAHKTRMKANTVKCMEVLEGQLSSCRCPLLGRVWKADLETCQLLMQSLQLQEAGSSPHAEDEEQVHSTGEAAQTAALAVPRTPHPEEEKSPLQVLQEWDTHSALSPHCAAGPWKEDSHIVSAEVGEKCEAIGVKLLHLEDQLLGAMYSHDEALFQSLQGELQTVKETLQAMILQLQPTKEAGEASASYPTAGAQETEA
With B1, the binding entry in assay [1] and in assay [2] was “binds” throughout.
